# Reference: patent US20200399381A1 (I MAB BIOPHARMA US, published 2020)
# These are yes or no findings as the source states them, for the method shown. Some binding calls cover weakened binding; strength is not graded here.
# T1: human IFNAR-1 protein (form not stated) (human, UniProt P17181 28-436, limits assumed)
# T1 construct: bispecific ELISA
# T1 sequence (looked up): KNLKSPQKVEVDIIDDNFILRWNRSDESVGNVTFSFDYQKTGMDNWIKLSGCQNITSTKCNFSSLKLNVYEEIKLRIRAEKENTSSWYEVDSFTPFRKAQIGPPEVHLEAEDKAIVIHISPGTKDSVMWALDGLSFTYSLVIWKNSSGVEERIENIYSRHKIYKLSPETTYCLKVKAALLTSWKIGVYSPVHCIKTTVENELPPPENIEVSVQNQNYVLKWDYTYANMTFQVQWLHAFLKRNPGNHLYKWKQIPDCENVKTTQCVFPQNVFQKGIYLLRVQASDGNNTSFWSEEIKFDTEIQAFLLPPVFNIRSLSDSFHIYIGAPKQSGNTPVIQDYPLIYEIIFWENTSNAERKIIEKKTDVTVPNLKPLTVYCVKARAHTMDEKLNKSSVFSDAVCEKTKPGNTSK
# Tests used:
# [1] = molecular target: T1, human IFNAR-1 protein (form not stated); experiment: ELISA
# [2] = molecular target: T1, human IFNAR-1 protein (form not stated); experiment: ELISA on human IFNAR-1 protein
binder,measurement,setting,value
"8G11 chimeric antibody (antibody, V domains shown, also called chimeric 8G11) VH: EVQLQQSGAELVKPGASVKLSCTGFGFNIKDYYMHWVKQRAEQGLEWIGRIDPEDGETKYAPKFQGKATITADTSSNTAYLQVSSLTSEDTAVYYCARGGNFYVMDYWGQGTSVTVSS VL: DIVMTQSQKFMSTSVGDRVSVTCKASQNVGTNVVWYQQKPGQSPKVLIYSASYRVSGVPDRFTGSGSGTDFTLIISNVQSEDLAEYFCQQKNNYPYTFGGGTKLEIK",binding,[1],binds
same,binding,[2],binds
